{"source": "PubChem BioAssay AID504784 (Drosophila RNAi Screening Center, 2011)", "test": "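Fly genes whose silencing alters how much lipid cells keep in droplets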 (primary screen)", "cell system": "Drosophila Kc167 embryonic cells", "reagent": "long dsRNA against Drosophila genes, about 250 ng dsRNA per well", "timing": "4 days", "treatment": "cells fed 400 µM oleic acid bound to BSA", "detection": "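Cells imaged and segmented; ratio of lipid droplet area to nuclear area, log-transformed, then normalised as a B-score over the screen; higher means more stored lipid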", "scale": "droplet/nuclear area B-score: higher = more stored lipid (overstorage)", "note": "In all, the deposit lists about 17,000 reagents; below is an unselected part of those with a known target gene and a result. 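Each column is one replicate's B-score; the combined score over replicates was not deposited, so single values may mislead.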 A plus sign joins genes that one reagent is predicted to hit. Not all columns of the deposit are shown. Reagent sequences are not shown."}
{"target gene":"CG5079","dsRNA":"DRSC15713","droplet/nuclear area B-score, replicate 1":0.0202}
{"target gene":"CG5079","dsRNA":"DRSC23061","droplet/nuclear area B-score, replicate 1":-0.92}
{"target gene":"CG14877","dsRNA":"DRSC15001","droplet/nuclear area B-score, replicate 1":-0.468}
{"target gene":"CG17065","dsRNA":"DRSC20544","droplet/nuclear area B-score, replicate 1":-1.22}
{"target gene":"Ugt37C2 (UDP-glycosyltransferase family 37 member C2)","dsRNA":"DRSC02247","droplet/nuclear area B-score, replicate 1":0.262}
{"target gene":"Bcs1 (Bcs1 chaperone)","dsRNA":"DRSC02789","droplet/nuclear area B-score, replicate 1":-0.0472}
{"target gene":"CG7222","dsRNA":"DRSC07019","droplet/nuclear area B-score, replicate 1":-0.131}
{"target gene":"CG11666","dsRNA":"DRSC22379","droplet/nuclear area B-score, replicate 1":0.0607}
{"target gene":"Ir48c (Ionotropic receptor 48c)","dsRNA":"DRSC06154","droplet/nuclear area B-score, replicate 1":0.922}
{"target gene":"glob3 (globin 3)","dsRNA":"DRSC12261","droplet/nuclear area B-score, replicate 1":0.145}
{"target gene":"ppk16 (pickpocket 16)","dsRNA":"DRSC02736","droplet/nuclear area B-score, replicate 1":-1.04}
{"target gene":"RpS2 (Ribosomal protein S2)","dsRNA":"DRSC03614","droplet/nuclear area B-score, replicate 1":1.29}
{"target gene":"Las (Lipoic acid synthase)","dsRNA":"DRSC11772","droplet/nuclear area B-score, replicate 1":-1.39}

Next part; the last 4 above are carried over.
{"target gene":"glob3 (globin 3)","dsRNA":"DRSC12261","droplet/nuclear area B-score, replicate 1":0.145}
{"target gene":"ppk16 (pickpocket 16)","dsRNA":"DRSC02736","droplet/nuclear area B-score, replicate 1":-1.04}
{"target gene":"RpS2 (Ribosomal protein S2)","dsRNA":"DRSC03614","droplet/nuclear area B-score, replicate 1":1.29}
{"target gene":"Las (Lipoic acid synthase)","dsRNA":"DRSC11772","droplet/nuclear area B-score, replicate 1":-1.39}
{"target gene":"CG13398","dsRNA":"DRSC02268","droplet/nuclear area B-score, replicate 1":1.57}
{"target gene":"CG5390","dsRNA":"DRSC02855","droplet/nuclear area B-score, replicate 1":-0.6}
{"target gene":"CG1806","dsRNA":"DRSC19787","droplet/nuclear area B-score, replicate 1":-0.563}
{"target gene":"Atg7 (Autophagy-related 7)","dsRNA":"DRSC05741","droplet/nuclear area B-score, replicate 1":-0.689}
{"target gene":"Atg7 (Autophagy-related 7)","dsRNA":"DRSC06937","droplet/nuclear area B-score, replicate 1":0.605}
{"target gene":"CG2129","dsRNA":"DRSC18209","droplet/nuclear area B-score, replicate 1":1.49}
{"target gene":"IntS11 (Integrator 11)","dsRNA":"DRSC15407","droplet/nuclear area B-score, replicate 1":-0.219}
{"target gene":"Regnase-1 (Regnase 1)","dsRNA":"DRSC14278","droplet/nuclear area B-score, replicate 1":-0.396}
{"target gene":"CG4074 + CG4186","dsRNA":"DRSC11753","droplet/nuclear area B-score, replicate 1":3.82}
{"target gene":"CG6236","dsRNA":"DRSC15999","droplet/nuclear area B-score, replicate 1":-0.873}
{"target gene":"Npc2d (Niemann-Pick type C-2d)","dsRNA":"DRSC14551","droplet/nuclear area B-score, replicate 1":0.135}
{"target gene":"CG14422","dsRNA":"DRSC17919","droplet/nuclear area B-score, replicate 1":-0.218}
{"target gene":"Rb97D (Ribonuclear protein at 97D)","dsRNA":"DRSC16815","droplet/nuclear area B-score, replicate 1":1.75}
{"target gene":"CG33791 + CG18170","dsRNA":"DRSC08523","droplet/nuclear area B-score, replicate 1":0.421}
{"target gene":"CG33791 + CG18170","dsRNA":"DRSC08601","droplet/nuclear area B-score, replicate 1":-1.01}
